Values from PubChem BioAssay AID1259424 (University of Nebraska Medical Center, 2018).
Shown is one part, drawn at random, of about 14,000 reagents tested. 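Higher correlation or smaller distance means closer resemblance to KSR1 loss; control wells, including KSR1 knockdowns, recur on many plates.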 Not all columns of the deposit are shown. No sequences are given here. Not stated in the record: the time to read-out.

- Aim: 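Seek colon cancer survival genes behaving like KSR1, using a six-gene signature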 (primary screen)
- System: human HCT116 colon cancer cells
- Knock-down reagent: siRNA pool against human genes, 50 nM
- Read-out: 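Log2 levels of six mRNAs (branched-DNA multiplex), adjusted by two reference genes and the non-targeting median, then scored against the average KSR1 knockdown pattern as Pearson r and euclidean distance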
- Reading the numbers: mean correlation with KSR1 profile: higher = expression change more like KSR1 knockdown

| Target gene | mean correlation with KSR1 profile |
| --- | --- |
| NKAP (NFKB activating protein) | -0.361 |
| MLH3 (mutL homolog 3) | 0.082 |
| TSPAN10 (tetraspanin 10) | 0.53 |
| RASSF5 (Ras association domain family member 5) | 0.567 |
| WDR74 (WD repeat domain 74) | -0.331 |
| BMP1 (bone morphogenetic protein 1) | -0.933 |
| GAB1 (GRB2 associated binding protein 1) | -0.116 |
| ITFG2 (integrin alpha FG-GAP repeat containing 2) | -0.103 |
| ASB1 (ankyrin repeat and SOCS box containing 1) | -0.404 |
| DDX27 (DEAD-box helicase 27) | -0.644 |
| CSRP1 (cysteine and glycine rich protein 1) | -0.204 |
| MGARP (mitochondria localized glutamic acid rich protein) | -0.0168 |
| SPATS2 (spermatogenesis associated serine rich 2) | -0.246 |
| MTHFD1 | -0.466 |
| CFAP300 (cilia and flagella associated protein 300) | 0.368 |
| NOC3L (NOC3 like DNA replication regulator) | -0.327 |
| KRT17 (keratin 17) | 0.0837 |
| CDH10 (cadherin 10) | 0.438 |
| TXNL4B (thioredoxin like 4B) | -0.362 |
| OR7E5P (olfactory receptor family 7 subfamily E member 5 pseudogene) | 0.414 |

Entries above whose gene name starts with M or m (3):
| Target gene | mean correlation with KSR1 profile |
| --- | --- |
| MLH3 (mutL homolog 3) | 0.082 |
| MGARP (mitochondria localized glutamic acid rich protein) | -0.0168 |
| MTHFD1 | -0.466 |
